# Melanoma cell counts after drug treatment

From a melanoma drug combination screen (doi:10.1371/journal.pone.0140310); values rounded.

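Human melanoma cell lines in 1,536-well plates were treated with two drugs together for 72 h, then fixed, stained and imaged. The read-out is cell count (nuclei) in % of the DMSO control; lower values mean stronger growth inhibition or killing. Every drug was used at one fixed concentration, the higher of two screened. No replicate spread is given; individual values may be noisy.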 This is part of the screen, not chosen by result. An entry leaves out what has no value listed here.

Compounds and concentrations:
RKI-983: C[C@@H](N)c1ccc(C(=O)Nc2ccnc3[nH]ccc23)cc1 at 2 µM
vismodegib: CS(=O)(=O)c1ccc(C(=O)Nc2ccc(Cl)c(-c3ccccn3)c2)c(Cl)c1 at 5 µM
T0901317: O=S(=O)(c1ccccc1)N(CC(F)(F)F)c1ccc(C(O)(C(F)(F)F)C(F)(F)F)cc1 at 7 µM
pioglitazone: CCc1ccc(CCOc2ccc(CC3SC(=O)NC3=O)cc2)nc1 (configuration not stated) at 10 µM
everolimus: CO[C@H]1C[C@@H]2CC[C@@H](C)[C@@](O)(O2)C(=O)C(=O)N2CCCC[C@H]2C(=O)O[C@H]([C@H](C)C[C@@H]2CC[C@@H](OCCO)[C@H](OC)C2)CC(=O)[C@H](C)/C=C(\C)[C@@H](O)[C@@H](OC)C(=O)[C@H](C)C[C@H](C)/C=C/C=C/C=C/1C at 0.1 µM
tipifarnib: Cn1cncc1[C@@](N)(c1ccc(Cl)cc1)c1ccc2c(c1)c(-c1cccc(Cl)c1)cc(=O)n2C at 0.05 µM
BI-D1870: CC(C)CCN1c2nc(Nc3cc(F)c(O)c(F)c3)ncc2N(C)C(=O)C1C (configuration not stated) at 1 µM
perifosine: CCCCCCCCCCCCCCCCCCOP(=O)([O-])OC1CC[N+](C)(C)CC1 at 2 µM
NVP-BEZ235: Cn1c(=O)n(-c2ccc(C(C)(C)C#N)cc2)c2c3cc(-c4cnc5ccccc5c4)ccc3ncc21 at 0.02 µM
SU6656: CN(C)S(=O)(=O)c1ccc2c(c1)/C(=C/c1cc3c([nH]1)CCCC3)C(=O)N2 at 2 µM
PF-04217903: OCCn1cc(-c2cnc3nnn(Cc4ccc5ncccc5c4)c3n2)cn1 at 5 µM
embelin: CCCCCCCCCCCC1=C(O)C(=O)C=C(O)C1=O at 6 µM
CHIR-265: Cn1c(Nc2ccc(C(F)(F)F)cc2)nc2cc(Oc3ccnc(-c4ncc(C(F)(F)F)[nH]4)c3)ccc21 at 0.4 µM
tanespimycin: C=CCNC1=C2C[C@@H](C)C[C@H](OC)[C@H](O)[C@@H](C)/C=C(\C)[C@H](OC(N)=O)[C@@H](OC)/C=C\C=C(/C)C(=O)NC(=CC1=O)C2=O at 0.01 µM
PD173074: CCN(CC)CCCCNc1ncc2cc(-c3cc(OC)cc(OC)c3)c(NC(=O)NC(C)(C)C)nc2n1 at 0.5 µM
palbociclib: CC(=O)c1c(C)c2cnc(Nc3ccc(N4CCNCC4)cn3)nc2n(C2CCCC2)c1=O at 0.2 µM
AS-252424: O=C1NC(=O)/C(=C/c2ccc(-c3ccc(F)cc3O)o2)S1 at 5 µM
TCS401: O=C(O)C(=O)Nc1sc2c(c1C(=O)O)CCNC2 at 8.33 µM
BMS-536924: Cc1cc(N2CCOCC2)cc2[nH]c(-c3c(NC[C@@H](O)c4cccc(Cl)c4)cc[nH]c3=O)nc12 at 1 µM
GW9662: O=C(Nc1ccccc1)c1cc([N+](=O)[O-])ccc1Cl at 10 µM

Results for BI-D1870 + perifosine are A101D: 57.0; WM3619: 86.8.
Results for tanespimycin + RKI-983 are A101D: 65.5; WM3619: 57.2.
Results for RKI-983 + vismodegib are A101D: 59.8; WM3619: 96.6.
Results for perifosine + vismodegib are A101D: 115; WM3619: 106.
Results for RKI-983 + NVP-BEZ235 are A101D: 53.8; WM3619: 59.5.
Results for everolimus + RKI-983 are A101D: 80.1; WM3619: 59.3.
Results for CHIR-265 + RKI-983 are A101D: 56.3; WM3619: 36.9.
Results for perifosine + embelin are A101D: 67.3; WM3619: 85.3.
Results for T0901317 + RKI-983 are A101D: 71.1; WM3619: 65.5.
Results for RKI-983 + PF-04217903 are A101D: 62.1.
Results for RKI-983 + AS-252424 are A101D: 59.8; WM3619: 95.3.
Results for RKI-983 + tipifarnib are A101D: 73.9.
Results for RKI-983 + BI-D1870 are A101D: 44.5; WM3619: 82.3.
Results for GW9662 + perifosine are A101D: 58.8; WM3619: 66.8.
Results for RKI-983 + BMS-536924 are A101D: 78.3; WM3619: 84.4.
Results for embelin + RKI-983 are A101D: 64.8; WM3619: 92.1.
Results for T0901317 + perifosine are A101D: 95.3; WM3619: 85.5.
Results for NVP-BEZ235 + perifosine are A101D: 76.5; WM3619: 75.0.
Results for PD173074 + RKI-983 are A101D: 72.5; WM3619: 102.
Results for perifosine + BMS-536924 are A101D: 105.
Results for SU6656 + RKI-983 are A101D: 47.1.
Results for RKI-983 + pioglitazone are A101D: 70.7; WM3619: 81.0.
Results for GW9662 + RKI-983 are A101D: 69.1; WM3619: 94.0.
Results for RKI-983 + TCS401 are A101D: 77.4; WM3619: 83.4.
Results for palbociclib + RKI-983 are A101D: 61.6; WM3619: 61.6.

Repeated from the top, 2 entries:

Combination	A101D	WM3619
BI-D1870 + perifosine	57.0	86.8
tanespimycin + RKI-983	65.5	57.2